# Assay results: patent US12673973B2, “Peptide having blood coagulation activity, and use thereof” (CAREGEN CO, LTD., priority 2021, dated 2026)
# Part of at least one peptide drawing is inferred or uncertain, most often the ends. Peptide text beside a SMILES is read from it.
# Tests used:
# [1] = Peptide gelation according to pH change (light scattering); type: physicochemical; conditions: 1 mg/ml peptide
# [2] = tested on: rat blood; test: Blood coagulation test: optical density of supernatant; type: cell-based; conditions: heparinized rat blood, CaCl2 added, 37° C. 10 minutes
# Protocol: In addition, in order to evaluate the coagulation efficacy of the peptide of the present invention, the peptide of the Preparation Example was treated with rat blood, and its optical density was measured. Specifically, in a state where the coagulation reaction of the collected rat blood was suppressed in a heparinized vacuum collection tube, 300 μl of blood was transferred to a 15 ml conical tube, and 300 μl of the peptide of the present invention solution was added thereto and mixed gently. Then, 30 μl of 0.2 M CaCl2 solution was added thereto and incubated at 37° C. for 10 minutes to accelerate the coagulation reaction. Then, 10 ml of distilled water was carefully added thereto, and 200 μl of the uniformly dispersed supernatant was added to a 96-well plate, and the optical density was measured at a wavelength of 540 nm using a spectrophotometer. Likewise, Greenplast and RADA16 peptide preparations were used as controls.
# [3] = tested on: rat blood; test: Blood coagulation test: clotting time by tube inversion; type: cell-based; conditions: 300 μl heparinized rat blood + 150 μl sample; peptides at 2.5%
# Protocol: First, the clotting time of blood according to the treatment of the peptide of the present invention was evaluated. In a state where the coagulation reaction of the collected rat blood was suppressed in a heparinized vacuum collection tube, 300 μl of blood was transferred to an EP tube, and 150 μl of a solution in which the peptide of the present invention was dissolved in purified water was treated thereto. The clotting time was measured by inverting the tube at 10-second intervals and visually evaluating the flowability of the blood. As a control group, the RADA16 peptide sample and Greenplast (Greenplast Q, GC Green Cross) were used to conduct the experiment in the same manner as the peptide of the present invention.
# [4] = tested on: red blood cell suspension; test: Hemagglutination assay; type: cell-based; conditions: rat red blood cells, 4° C. for 2 hours or longer, visual
# [5] = Peptide gelation according to peptide concentration (visual phase transition); type: physicochemical
# [6] = tested on: bleeding model (thigh artery damaged with 21 G needle); test: Animal experiment on hemostasis effect (artery bleeding model); type: in vivo; conditions: SD-rat; for bleeding time (time required for the bleeding to stop): 200 μl on bleeding site
# [7] = Peptide gelation according to salt (NaCl) concentration (OD 600); type: physicochemical; conditions: 25 mg/ml peptide
smiles,measurement,setting,value
"CC[C@H](C)[C@H](NC(=O)[C@H](CC(N)=O)NC(=O)CNC(=O)[C@H](C)NC(=O)[C@H](CC(C)C)NC(=O)[C@H](Cc1ccc(O)cc1)NC(=O)[C@H](C)NC(=O)[C@H](CCC(N)=O)NC(=O)[C@H](CO)NC(=O)[C@H](C)NC(=O)[C@@H](N)CO)C(=O)N[C@H](C(=O)O)[C@@H](C)O [Peptide of the present invention, SASQAYLAGNIT] (H-SASQAYLAGNIT-OH)",pH at which peptide aggregation was observed with the naked eye,[1],≥ 6 pH
same,pH at which the highest kcps value was measured,[1]; light scattering intensity,5.5 pH
same,optical density (540 nm) of supernatant relative to negative control treated with distilled water,[2],0.41
same,Blood Clotting time,[3],13 s
same,concentration at which red blood cell suspension did not precipitate and formed a blood clot,[4],≥ 500 µg/mL
same,gelation on raising pH,"[5]; peptide 0.5 mg/ml, pH up to 7.5, 5 N NaOH added",gelation did not occur
same,pH from which gelation proceeded,[5]; peptide 25 mg/ml,4.2 pH
same,bleeding time (time required for the bleeding to stop),[6]; 1% peptide,96 s
same,bleeding time (time required for the bleeding to stop),[6]; 2.5% peptide,59 s
same,amount of blood loss compared to the negative control group (90 seconds without treatment),[6]; 2.5% peptide,significantly reduced
same,NaCl concentration up to which viscosity tended to increase,[7],150 mM
same,NaCl concentration at which turbidity of the mixture began to increase,[7]; OD 600 nm,100 mM
